For at least one entry, the source does not settle the construct or the ends of the probe. No signal at the amounts used counts as a negative. Where a protein sequence is shown, tags need not be part of it.
Target: T1, His-LexA (Synechocystis sp. PCC 6803) (UniProt P73722)
T1 sequence (looked up, limits assumed): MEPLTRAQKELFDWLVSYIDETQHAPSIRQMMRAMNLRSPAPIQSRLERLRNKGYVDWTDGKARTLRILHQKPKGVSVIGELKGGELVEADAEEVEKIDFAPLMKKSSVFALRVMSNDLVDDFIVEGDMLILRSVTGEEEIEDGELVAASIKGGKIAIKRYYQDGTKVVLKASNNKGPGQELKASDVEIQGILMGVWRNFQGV
Experiment: EMSA
Settings: DIG Gel Shift Kit 2nd generation (Roche), as in Kizawa et al. (ref 9); 6% polyacrylamide gel; pH and temperature not given; recombinant protein; protein details: N-terminal 6xHis; label: 3' DIG-ddUTP; probe letters rebuilt from the primers and the …

“GAAATGGGACGCACTTCTGGTCAGTTTATAGCAAAAATGCTGGGGAAAGGAAGACAACTAGGGAAAAAGAACAGGACATCAAATGGTCATTCCCCAGACCCTGGCGTCTTTGCCAGAGTAATCTCCCTGGCGCGGATGTTACACAAATGTAACGAAAAATATTTTCCCTCTCAGAATTTAGGCAAAGTGCCCAAACCCATCCTAGGCAAGCAATTCGTCCACCAACAAAAAGCTCTTTTGGTCAACAGACTTGACAAAAATCTTAACAATACGTTACATTTATTTACATAAGGTTACAAAATAAAAACCTCAAATACCCAATCAAGGAGATCAACACT (double strand) [PhliB]”: no binding.

Reference: paper PMC7567884
